This note sets out measurements from PubChem BioAssay AID493014 (National Center for Advancing Translational Sciences (NCATS), 2011).

Each structure is given as a SMILES string. Values joined by “and” are separate entries in the source; they are usually repeats but may differ in a detail not shown here. Equal entries are not always repeated. The list shows a part of the results. Shown are side measurements of this screen, not its main read-out; they come without a call. The list favours compounds with an active or inconclusive main result. The note in brackets gives the kind of curve behind each potency; many fits are weak.

This experiment can be described thus: qHTS Assay to Find Inhibitors of Chronic Active B-Cell Receptor Signaling. As to conditions: ABC-DLBCL IkBa-CBG/CBR reporter, luminescence ratio (green luciferase fused to IkBa over red control in TMD8 lymphoma cells), 4 h. Summed up: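 TMD8 human ABC-DLBCL cells with doxycycline-inducible IκBα–green luciferase fusion and unfused red luciferase, in 0.5% FBS medium; compounds up to 46 uM, 4 h at 37C. Green/red luminescence ratio, filter-overlap corrected, fitted to concentration-response curves.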
(In qHTS, concentration-response curves come from the screen itself.)

The mark [1] stands for this setting: measured here: CBR red luminescence, cell number.
The mark [2] stands for this setting: measured here: IkBa-CBG green luminescence.

A word on the AC50: it is the concentration giving half of the maximal activity seen.

In the case of `CC1(C)CC2CC(C)(CN2C(=O)CCCN2C(=O)c3ccccc3C2=O)C1` (stereo unspecified), the AC50 under setting [1] is 3.66 µM [rising, full curve, poor fit].
For the molecule `COc1cc(OC)cc(C(=O)N/N=C/c2ccc(OC)c(COc3ccc4ccccc4c3)c2)c1`, the AC50 under setting [1] was 3.55 µM [falling, partial curve, poor fit].
As to `CCc1cc2c(=O)c(-c3cnn(-c4ccccc4)c3)coc2c(CN2CCOCC2)c1O`, the AC50 under setting [1] was 2.82 µM [rising, full curve, poor fit].
Turning to `COc1ccccc1-c1noc(CCC(=O)N2CCN(c3cc(C)ccc3C)CC2)n1`, the AC50 under setting [1] is 23.1 µM [falling, single point].
Turning to `COc1ccc(S(=O)(=O)N2CCCCCC2)cc1C(=O)NCCc1ccc(F)cc1`, the half-maximal activity concentration (AC50) under setting [1] is 20.6 µM [rising, partial curve, poor fit].
For `O=C(Cn1cc2c(n1)CCCCC2)Nc1ccccc1Cl`, under setting [1], the AC50 is 14.1 µM [rising, partial curve, poor fit].
Take `C(=N\NC1=Nc2cccc3cccc1c23)/c1cccnc1`: the AC50 under setting [1] was 28.2 µM [falling, single point].
`O=C(COC(=O)c1ccccc1NS(=O)(=O)c1ccc(Cl)cc1)NCc1ccccc1`: the AC50 under setting [1] was 29.1 µM [falling, single point].
In the case of `CCCCc1c(O)nc(SCC(=O)N2CCCCC2)[nH]c1=O`, the AC50 under setting [1] was 0.794 µM [rising, full curve, poor fit].
The same measure, in the same setting: the same measure for `CN(Cc1ccon1)Cc1cn(C)nc1-c1cccc(Cl)c1`: 35.5 µM [falling, single point].
Same read-out and setting: the same measure for `COc1ccccc1CC(=O)c1ccc(OCc2ccccc2)cc1`: 0.0092 µM [rising, full curve, poor fit]; for `Nc1c2c(nc3ccc(Br)cc13)N(C1CCCCC1)CC2`: 35.5 µM [falling, single point]; for `Cc1ccc2[nH]c3c(N4CCc5ccccc5C4)ncnc3c2c1`: 22.4 µM [falling, partial curve, poor fit].
Take `O=C(N/N=C/c1coc2ccc(Cl)cc2c1=O)c1ccc(O)cc1`: the AC50 under setting [1] is 0.282 µM [falling, full curve, poor fit].
`NC(=O)Nc1ccc(F)cc1`: the half-maximal activity concentration (AC50) under setting [1] is 0.731 µM [falling, full curve, poor fit].
With `O=C(Nc1ccc(-c2cn3c(n2)SCC3)cc1)c1ccc2ccccc2n1`, the AC50 under setting [1] is 1 µM [falling, full curve].
Regarding `FC(F)(F)c1cnc(NNC(=S)Nc2ccccc2Cl)c(Cl)c1`, the AC50 under setting [1] was 16.4 µM [falling, single point].
Still for that read-out and setting: to `C/C(CC1CC(COCC(C)C)OC1=O)=N\Nc1nc(-c2ccccc2)cs1` (stereo unspecified) belongs 4.61 µM [falling, partial curve].
Take `COc1ccc(/C=C(/C#N)c2cccnc2)cc1OC`: the AC50 by setting is: under setting [1], 20.6 µM [rising, partial curve]; under setting [2], 23.1 µM [falling, single point].
In the case of `O=C(/C=C/c1cccc([N+](=O)[O-])c1)N(c1ccccn1)c1ccccn1`, the AC50 under setting [1] is 3.55 µM [rising, partial curve, poor fit].
Still for that read-out and setting: the same measure for `C=CCN1C=C/C(=C\C=C(C#N)C#N)c2ccccc21`: 7.31 µM [rising, partial curve]; for `Cc1c(C(=O)O)sc2nc(/C=C/c3cccc(F)c3)[nH]c(=O)c12`: 0.631 µM [falling, full curve]; for `Nc1nc(Cl)c2ncn(C3OC(CO)C(O)C3O)c2n1` (stereo unspecified): 32.6 µM [rising, partial curve, poor fit].
For the molecule `CC(C)(C)c1cc(C(=O)CCN2CCOCC2)cc(C(C)(C)C)c1O`, under setting [1], the AC50 was 11.2 µM [falling, partial curve, poor fit].
As for `S=C1NCN(Cc2ccco2)CN1`, the AC50 under setting [1] is 4.47 µM [falling, full curve, poor fit].
In the case of `Nc1c(NC2CCCCC2)c2ccccc2oc1=O`, the concentration at half-maximal activity (AC50) under setting [1] is 20.6 µM [falling, partial curve].
Take `Oc1c(Br)cc(Br)cc1CNc1cccc2cccnc12`: the AC50 under setting [1] is 12.6 µM [falling, partial curve].
Regarding `CCCOc1ccc(-c2nnc(N)s2)cc1`, the AC50 under setting [1] was 0.461 µM [rising, partial curve, poor fit].
Same read-out and setting: to `CC1=C(C(N)=O)C(c2cccc(F)c2)n2nc(SCc3ccccc3)nc2N1` (stereo unspecified) belongs 3.98 µM [falling, full curve, poor fit].
Regarding `COc1ccccc1C(=O)CC(=O)c1ccccc1`, under setting [1], the AC50 is 1.12 µM [rising, full curve, poor fit].
Consider `COc1ccccc1NC(=O)NCC(=O)Nc1ccc(F)c(F)c1`, for which the half-maximal activity concentration (AC50) under setting [1] is 8.2 µM [falling, partial curve, poor fit].
As for `COC(=O)NNC(=O)C1CCC(C)CC1` (stereo unspecified), the AC50 under setting [1] is 13 µM [rising, partial curve, poor fit].
With `CN(C)N=Nc1nc2c([nH]1)c(=O)n(C)c(=O)n2C`, the AC50 under setting [1] is 5.01 µM [falling, full curve].
Same read-out and setting: to `CCOc1ccc(CCNc2ncnc3onc(-c4ccc(F)cc4)c23)cc1OCC` belongs 10 µM [falling, partial curve, poor fit].
As to `CN(C)c1oc(COc2ccccc2F)nc1C#N`, the AC50 under setting [1] was 6.51 µM [rising, single point].
As for `O=C(CN1CCOCC1)N/N=C/c1ccc(-c2cccc(Cl)c2Cl)o1`, the AC50 under setting [1] was 3.98 µM [rising, single point].
`CC1CCN(Cc2nnc(-c3cccc(Br)c3)o2)CC1`: the AC50 under setting [1] was 7.08 µM [rising, full curve, poor fit].
On the same count and under the same terms, to `COc1ccc(C(=O)Nc2ccc(S(=O)(=O)N3CCCCC3)cc2)cc1` belongs 25.1 µM [falling, single point].
On the same count and under the same terms, to `Cc1ccc(NC(=O)CSc2nn(-c3ccccc3)c(=S)s2)cc1S(=O)(=O)N(C)C` belongs 29.1 µM [falling, partial curve]; to `CCOC(=O)c1c(CSc2ccccc2)n(C)c2ccc(O)c(CN3CCN(C)CC3)c12`, 11.2 µM [falling, partial curve]; to `c1nc(NC2CCCCCC2)c2[nH]cnc2n1`, 8.2 µM [falling, partial curve].
With `Cc1cccc(NC(=O)c2ccc([N+](=O)[O-])s2)c1C`, the half-maximal activity concentration (AC50) under setting [1] was 20.6 µM [falling, partial curve, poor fit].
Consider `CS(=O)(=O)c1ccc(Cl)c(NC(=O)CN2C(=O)C3CCCCC3C2=O)c1` (stereo unspecified), for which the AC50 under setting [1] was 29.1 µM [rising, single point].
For `Nc1nc(C23CC4CC(CC(Cl)(C4)C2)C3)cs1`, the AC50 under setting [1] was 35.5 µM [rising, single point].
In the case of `O=C(Nc1nnc(SCc2c(Cl)cccc2Cl)s1)c1cccc([N+](=O)[O-])c1`, under setting [1], the AC50 is 2.24 µM [rising, full curve, poor fit].
As for `Cc1cccc(C(=O)Nc2ccc(C(=O)N/N=C/c3ccc(C)o3)cc2)c1`, under setting [1], the AC50 is 10 µM [falling, partial curve, poor fit].
`COc1ccc(CCNC(=O)CN(c2ccc(OC)c(OC)c2)S(C)(=O)=O)cc1OC`: under setting [1], the AC50 is 6.51 µM [rising, single point].
For the molecule `COc1cc(/C=C2/NC(=O)NC2=O)cc(Br)c1OCc1ccccc1`, the AC50 under setting [1] is 6.31 µM [rising, full curve].
Regarding `CC(Sc1nc2nn(-c3ccccc3)c(=O)c-2c2n1CCCCC2)C(N)=O` (stereo unspecified), the AC50 under setting [1] is 6.51 µM [falling, single point].
For the molecule `CCN1C(=O)c2cccc3c(S(=O)(=O)Nc4ccccn4)ccc1c23`, the AC50 under setting [1] is 31.6 µM [rising, single point].
As for `C[C@H](CO)N1C[C@H](C)[C@@H](CN(C)S(=O)(=O)c2cccs2)Oc2ccc(NC(=O)CCC(F)(F)F)cc2C1=O`, the AC50 under setting [1] was 0.92 µM [rising, full curve, poor fit].
Regarding `O=C(CSc1nc2ncc(Cl)cc2[nH]1)Nc1cccc(F)c1`, the AC50 under setting [1] was 7.08 µM [falling, partial curve].
`FC(F)(F)Oc1ccc(Nc2nc(N3CCOCC3)nc(N3CCOCC3)n2)cc1`: the AC50 under setting [1] was 35.5 µM [rising, single point].
The same measure, in the same setting: the same measure for `O=C(Cc1sc(Nc2ccccc2)nc1-c1ccccc1)NCc1ccccn1`: 11.2 µM [falling, partial curve]; for `O=C1C=C(c2ccccc2)OC(=O)C1C(=O)c1ccccc1` (stereo unspecified): 11.6 µM [falling, partial curve, poor fit] and 7.08 µM [falling, partial curve]; for `Cc1sc(NC(=O)c2c(F)cccc2F)nc1-c1ccccc1`: 2.24 µM [falling, partial curve].
On to `O=c1cnnc(Nc2cccc(C(F)(F)F)c2)[nH]1`, for which the AC50 under setting [1] was 22.4 µM [falling, partial curve, poor fit].
As for `C#CCNc1ccc(C(=O)OCC)cc1`, under setting [1], the AC50 is 14.1 µM [rising, single point].
Same read-out and setting: the same measure for `CCOc1ccc2c(c1)c1nc3ccccc3nc1n2C`: 0.447 µM [falling, full curve, poor fit].
For the molecule `CC1Cc2ccccc2N1C(=O)c1ccc(N2CCCCC2)c([N+](=O)[O-])c1` (stereo unspecified), the half-maximal activity concentration (AC50) under setting [2] is 20.6 µM [rising, partial curve, poor fit].
As to `Cc1ccc(C2=Nc3ccccc3N=C(c3ccc([N+](=O)[O-])cc3)C2)c(O)c1`, under setting [1], the AC50 was 8.2 µM [rising, partial curve, poor fit].
As for `c1ccc(CSc2nnc([C@@H]3CCCN3)o2)cc1`, under setting [1], the AC50 was 11.2 µM [rising, partial curve].
On the same count and under the same terms, to `O=C(O)c1cc(NC(=O)c2cccc(C(=O)Nc3cc(C(=O)O)cc(C(=O)O)c3)c2)cc(C(=O)O)c1` belongs 6.31 µM [falling, single point]; to `COc1ccc(N(C)S(=O)(=O)c2cccc(C(=O)OCC(=O)c3c(N)n(C)c(=O)n(C)c3=O)c2)cc1`, 16.4 µM [falling, single point].
Regarding `CCC(=NC(C)c1ccccc1)c1c(O)n(C)c(=O)n(C)c1=O` (stereo unspecified), the AC50 under setting [1] is 6.51 µM [falling, single point].
